The supplement of paper PMC4604168 (melanoma cell lines)
The list shows a part of the results. Single values are uncertain, as repeats are few or missing.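 The apoptosis fraction was the count of cleaved-PARP antibody-stained nuclei relative to all DNA-stained nuclei, imaged in 1,536-well plates. Screening doses were set so most cells survived, and baseline and induced cleaved-PARP levels vary greatly across cell lines.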

Legend:
Assay in all cases: cleaved PARP positive nuclei fraction relative to DMSO control; melanoma cells; higher = more apoptosis
Details in all cases: library dose: low library concentration; 72 h
501Mel = test system: 501Mel
A101D = test system: A101D
A2058 = test system: A2058
C32 = test system: C32
CBRC008 = test system: CBRC008 (line from a melanoma biopsy)
CBRC014 = test system: CBRC014 (line from a melanoma biopsy)
CBRC016 = test system: CBRC016 (line from a melanoma biopsy)
CBRC017 = test system: CBRC017 (line from a melanoma biopsy)
COLO792 = test system: COLO792
COLO800 = test system: COLO800
COLO829 = test system: COLO829
G361 = test system: G361
IPC-298 = test system: IPC-298
IST-MEL1 = test system: IST-MEL1
LB2518-MEL = test system: LB2518-MEL
LOXIMVI = test system: LOXIMVI

Compound | cleaved PARP positive nuclei fraction (501Mel) | cleaved PARP positive nuclei fraction (A101D) | cleaved PARP positive nuclei fraction (A2058) | cleaved PARP positive nuclei fraction (C32) | cleaved PARP positive nuclei fraction (CBRC008) | cleaved PARP positive nuclei fraction (CBRC014) | cleaved PARP positive nuclei fraction (CBRC016) | cleaved PARP positive nuclei fraction (CBRC017) | cleaved PARP positive nuclei fraction (COLO792) | cleaved PARP positive nuclei fraction (COLO800) | cleaved PARP positive nuclei fraction (COLO829) | cleaved PARP positive nuclei fraction (G361) | cleaved PARP positive nuclei fraction (IPC-298) | cleaved PARP positive nuclei fraction (IST-MEL1) | cleaved PARP positive nuclei fraction (LB2518-MEL) | cleaved PARP positive nuclei fraction (LOXIMVI)
CC[C@]1(O)C[C@H]2CN(CCc3c([nH]c4ccccc34)[C@@](C(=O)OC)(c3cc4c(cc3OC)N(C=O)[C@H]3[C@@](O)(C(=O)OC)[C@H](OC(C)=O)[C@]5(CC)C=CCN6CC[C@]43[C@@H]65)C2)C1 [vincristine] + CC(C)CCN1c2nc(Nc3cc(F)c(O)c(F)c3)ncc2N(C)C(=O)C1C [BID1870] (first compound 0.0001 µM, partner dose 0.2 µM) | 84.6% | 16.2% | 801% | 381% | 886% | 236% | 231% | 104% | 125% | 133% | 164% | 85% | 33% | 166% | 77.3% | 426%
N#CC[C@H](C1CCCC1)n1cc(-c2ncnc3[nH]ccc23)cn1 [ruxolitinib] + O=C1NC(=O)/C(=C/c2ccc(-c3ccc(F)cc3O)o2)S1 [AS252424] (first compound 1 µM, partner dose 1 µM) | 168% | 4.17% | 373% | 206% | 108% | 169% | 88.8% | 103% | 47.3% | 23.1% | 76.3% | 106% | 97.5% | 82.1% | 45.3% | 121%
O=c1[nH]nc(Sc2ncc([N+](=O)[O-])s2)n1-c1ccc2c(c1)OCCO2 + O=c1cc(-c2cccc3c2Sc2ccccc2S3)oc(N2CCOCC2)c1 [KU55933] (first compound 0.2 µM, partner dose 1 µM) | 153% | 16.1% | 91.3% | 158% | 257% | 105% | 77% | 146% | 98.9% | 116% | 78.4% | 86.7% | 43.9% | 97.5% | 53.4% | 90.9%
CCCCCCCCCCCCCCCCCCOP(=O)([O-])OC1CC[N+](C)(C)CC1 [Perifosine] + COc1ccc(-c2ccc3c(N4CCOCC4)nc(N4C[C@@H](C)O[C@@H](C)C4)nc3n2)cc1CO [KU0063794] (first compound 0.4 µM, partner dose 0.02 µM) | 160% | 25.1% | 84.5% | 127% | 116% | 99% | 52.7% | 62.5% | 137% | 214% | 39.9% | 107% | 51.9% | 36.7% | 140% | 45.7%
O=c1[nH]nc(Sc2ncc([N+](=O)[O-])s2)n1-c1ccc2c(c1)OCCO2 + COc1ccc(COc2ccc(Cc3cnc(N)nc3N)cc2OC)cc1 [GW2580] (first compound 0.2 µM, partner dose 1 µM) | 69.2% | 75.5% | 28.9% | 76.8% | 120% | 87.6% | 76.5% | 86.1% | 89.1% | 175% | 112% | 146% | 58.6% | 128% | 66.5% | 137%
O=C(Nc1cc(C(F)(F)F)cc(C(F)(F)F)c1)c1cc(Cl)ccc1O + Oc1nc(-c2ccc(C(F)(F)F)cc2)nc2c1CSCC2 [XAV939] (first compound 0.016 µM, partner dose 2 µM) | 125% | 70.5% | 76.8% | 140% | 50.4% | 76.3% | 123% | 87.4% | 23.2% | 90.6% | 147% | 54.8% | 38.4% | 123% | 235% | 99.4%
CCCCCCCCCCCCCCCCCCOP(=O)([O-])OC1CC[N+](C)(C)CC1 [Perifosine] + CC(C)CCN1c2nc(Nc3cc(F)c(O)c(F)c3)ncc2N(C)C(=O)C1C [BID1870] (first compound 0.4 µM, partner dose 0.2 µM) | 57.2% | 27.5% | 33.8% | 49.8% | 178% | 93.8% | 44% | 326% | 35% | 85.6% | 186% | 200% | 65.5% | 97.2% | 92.4% | 47.5%
O=C(Nc1cc(C(F)(F)F)cc(C(F)(F)F)c1)c1cc(Cl)ccc1O + COC(=O)c1sccc1S(=O)(=O)Nc1ccc(Nc2ccccc2)cc1OC [GSK0660] (first compound 0.016 µM, partner dose 1 µM) | 118% | 20% | 67.8% | 131% | 102% | 92.1% | 120% | 96.2% | 129% | 107% | 68.2% | 73.2% | 29.5% | 147% | 65.9% | 138%
Cc1cc(Nc2cc(N3CCN(C)CC3)nc(Sc3ccc(NC(=O)C4CC4)cc3)n2)n[nH]1 [Tozasertib] + O=c1cc(-c2cccc3c2Sc2ccccc2S3)oc(N2CCOCC2)c1 [KU55933] (first compound 0.006 µM, partner dose 1 µM) | 65.5% | 65.5% | 42.6% | 152% | 48.8% | 105% | 100% | 88.7% | 107% | 110% | 99% | 161% | 89.1% | 89.8% | 65.6% | 158%
Cc1cn(-c2cc(NC(=O)c3ccc(C)c(Nc4nccc(-c5cccnc5)n4)c3)cc(C(F)(F)F)c2)cn1 [nilotinib] + Oc1nc(-c2ccc(C(F)(F)F)cc2)nc2c1CSCC2 [XAV939] (first compound 0.2 µM, partner dose 2 µM) | 69.8% | 39.8% | 78.2% | 79.1% | 118% | 79.3% | 60.3% | 163% | 45.6% | 150% | 50.1% | 90.2% | 48% | 82.7% | 358% | 39.9%
N#CC[C@H](C1CCCC1)n1cc(-c2ncnc3[nH]ccc23)cn1 [ruxolitinib] + Oc1cc(-c2nc(-c3ccccc3)[nH]c2-c2ccncc2)ccc1Cl [L779450] (first compound 1 µM, partner dose 0.2 µM) | 84.9% | 22.5% | 77.9% | 76.1% | 28.9% | 98.7% | 64.6% | 80.6% | 59.1% | 67% | 90.2% | 127% | 32.3% | 121% | 185% | 178%
Cc1cc(Nc2cc(N3CCN(C)CC3)nc(Sc3ccc(NC(=O)C4CC4)cc3)n2)n[nH]1 [Tozasertib] + CCCCCCCCCCCC1=C(O)C(=O)C=C(O)C1=O [Embelin] (first compound 0.006 µM, partner dose 1.2 µM) | 52.8% | 13.8% | 82% | 34.6% | 46.4% | 84.6% | 129% | 93.4% | 91.1% | 46.9% | 166% | 103% | 99.6% | 94.4% | 81.5% | 32.9%
N#CC[C@H](C1CCCC1)n1cc(-c2ncnc3[nH]ccc23)cn1 [ruxolitinib] + O=S(=O)(c1ccccc1)N(CC(F)(F)F)c1ccc(C(O)(C(F)(F)F)C(F)(F)F)cc1 [T0901317] (first compound 1 µM, partner dose 1.4 µM) | 125% | 21.3% | 52.3% | 50.7% | 104% | 83.3% | 39.8% | 107% | 82.4% | 57.7% | 80.5% | 31.6% | 148% | 122% | 125% | 288%
Cc1cc(Nc2cc(N3CCN(C)CC3)nc(Sc3ccc(NC(=O)C4CC4)cc3)n2)n[nH]1 [Tozasertib] + CCc1ccc(CCOc2ccc(CC3SC(=O)NC3=O)cc2)nc1 [pioglitazone] (first compound 0.006 µM, partner dose 2 µM) | 66.6% | 48.8% | 96.2% | 335% | 80.2% | 96.8% | 71% | 87.8% | 148% | 229% | 70.9% | 158% | 98.9% | 34.8% | 33.8% | 133%
Cc1cc(Nc2cc(N3CCN(C)CC3)nc(Sc3ccc(NC(=O)C4CC4)cc3)n2)n[nH]1 [Tozasertib] + Oc1nc(-c2ccc(C(F)(F)F)cc2)nc2c1CSCC2 [XAV939] (first compound 0.006 µM, partner dose 2 µM) | 129% | 31.9% | 96.4% | 102% | 301% | 89.5% | 63.1% | 86.1% | 165% | 138% | 87.8% | 123% | 31.3% | 112% | 53.4% | 124%
CCCCCCCCCCCCCCCCCCOP(=O)([O-])OC1CC[N+](C)(C)CC1 [Perifosine] + CCc1ccc(CCOc2ccc(CC3SC(=O)NC3=O)cc2)nc1 [pioglitazone] (first compound 0.4 µM, partner dose 2 µM) | 106% | 9.81% | 291% | 174% | 114% | 265% | 75.9% | 125% | 68% | 124% | 135% | 72.1% | 94.5% | 126% | 285% | 153%
CC[C@]1(O)C[C@H]2CN(CCc3c([nH]c4ccccc34)[C@@](C(=O)OC)(c3cc4c(cc3OC)N(C=O)[C@H]3[C@@](O)(C(=O)OC)[C@H](OC(C)=O)[C@]5(CC)C=CCN6CC[C@]43[C@@H]65)C2)C1 [vincristine] + Cn1cc(/C=C2\C(=O)Nc3cccnc32)c2ccccc21 [GW441756] (first compound 0.0001 µM, partner dose 0.4 µM) | 57.5% | 8.85% | 1330% | 105% | 151% | 90.3% | 128% | 93.8% | 72.4% | 66.6% | 30.8% | 89.6% | 136% | 97% | 128% | 166%
Cc1cc(Nc2cc(N3CCN(C)CC3)nc(Sc3ccc(NC(=O)C4CC4)cc3)n2)n[nH]1 [Tozasertib] + O=C1NC(=O)/C(=C/c2ccc(-c3ccc(F)cc3O)o2)S1 [AS252424] (first compound 0.006 µM, partner dose 1 µM) | 143% | 43.1% | 82.3% | 81.6% | 159% | 115% | 73.5% | 155% | 87.5% | 127% | 184% | 74.6% | 47.1% | 62.3% | 157% | 100%
O=C(/C=C/c1cccnc1)NCCCCC1CCN(C(=O)c2ccccc2)CC1 + CCCCCCCCCCCC1=C(O)C(=O)C=C(O)C1=O [Embelin] (first compound 0.01 µM, partner dose 1.2 µM) | 63.5% | 18.2% | 288% | 152% | 209% | 106% | 24.5% | 144% | 388% | 321% | 191% | 1090% | 261% | 93.8% | 331% | 178%

An excerpt of these results, as comma-separated lines:
Compound,cleaved PARP positive nuclei fraction (501Mel),cleaved PARP positive nuclei fraction (A101D),cleaved PARP positive nuclei fraction (A2058),cleaved PARP positive nuclei fraction (C32),cleaved PARP positive nuclei fraction (CBRC008),cleaved PARP positive nuclei fraction (CBRC014),cleaved PARP positive nuclei fraction (CBRC016),cleaved PARP positive nuclei fraction (CBRC017),cleaved PARP positive nuclei fraction (COLO792),cleaved PARP positive nuclei fraction (COLO800),cleaved PARP positive nuclei fraction (COLO829),cleaved PARP positive nuclei fraction (G361),cleaved PARP positive nuclei fraction (IPC-298),cleaved PARP positive nuclei fraction (IST-MEL1),cleaved PARP positive nuclei fraction (LB2518-MEL),cleaved PARP positive nuclei fraction (LOXIMVI)
"Cc1cc(Nc2cc(N3CCN(C)CC3)nc(Sc3ccc(NC(=O)C4CC4)cc3)n2)n[nH]1 [Tozasertib] + CCc1ccc(CCOc2ccc(CC3SC(=O)NC3=O)cc2)nc1 [pioglitazone] (first compound 0.006 µM, partner dose 2 µM)",66.6%,48.8%,96.2%,335%,80.2%,96.8%,71%,87.8%,148%,229%,70.9%,158%,98.9%,34.8%,33.8%,133%
"Cc1cc(Nc2cc(N3CCN(C)CC3)nc(Sc3ccc(NC(=O)C4CC4)cc3)n2)n[nH]1 [Tozasertib] + Oc1nc(-c2ccc(C(F)(F)F)cc2)nc2c1CSCC2 [XAV939] (first compound 0.006 µM, partner dose 2 µM)",129%,31.9%,96.4%,102%,301%,89.5%,63.1%,86.1%,165%,138%,87.8%,123%,31.3%,112%,53.4%,124%
"CCCCCCCCCCCCCCCCCCOP(=O)([O-])OC1CC[N+](C)(C)CC1 [Perifosine] + CCc1ccc(CCOc2ccc(CC3SC(=O)NC3=O)cc2)nc1 [pioglitazone] (first compound 0.4 µM, partner dose 2 µM)",106%,9.81%,291%,174%,114%,265%,75.9%,125%,68%,124%,135%,72.1%,94.5%,126%,285%,153%
"CC[C@]1(O)C[C@H]2CN(CCc3c([nH]c4ccccc34)[C@@](C(=O)OC)(c3cc4c(cc3OC)N(C=O)[C@H]3[C@@](O)(C(=O)OC)[C@H](OC(C)=O)[C@]5(CC)C=CCN6CC[C@]43[C@@H]65)C2)C1 [vincristine] + Cn1cc(/C=C2\C(=O)Nc3cccnc32)c2ccccc21 [GW441756] (first compound 0.0001 µM, partner dose 0.4 µM)",57.5%,8.85%,1330%,105%,151%,90.3%,128%,93.8%,72.4%,66.6%,30.8%,89.6%,136%,97%,128%,166%
